Cleaved PARP after 72 h of treatment

Drug key:
CHIR-265 (0.4 µM): Cn1c(Nc2ccc(C(F)(F)F)cc2)nc2cc(Oc3ccnc(-c4ncc(C(F)(F)F)[nH]4)c3)ccc21
docetaxel (0.0005 µM): CC(=O)O[C@@]12CO[C@@H]1C[C@H](O)[C@@]1(C)C(=O)[C@H](O)C3=C(C)[C@@H](OC(=O)[C@H](O)[C@@H](NC(=O)OC(C)(C)C)c4ccccc4)C[C@@](O)([C@@H](OC(=O)c4ccccc4)[C@H]21)C3(C)C
TCS401 (8.33 µM): O=C(O)C(=O)Nc1sc2c(c1C(=O)O)CCNC2
everolimus (0.1 µM): CO[C@H]1C[C@@H]2CC[C@@H](C)[C@@](O)(O2)C(=O)C(=O)N2CCCC[C@H]2C(=O)O[C@H]([C@H](C)C[C@@H]2CC[C@@H](OCCO)[C@H](OC)C2)CC(=O)[C@H](C)/C=C(\C)[C@@H](O)[C@@H](OC)C(=O)[C@H](C)C[C@H](C)/C=C/C=C/C=C/1C
GW0742 (10 µM): Cc1cc(SCc2sc(-c3ccc(C(F)(F)F)c(F)c3)nc2C)ccc1OCC(=O)O
ABT-263 (2 µM): CC1(C)CCC(c2ccc(Cl)cc2)=C(CN2CCN(c3ccc(C(=O)NS(=O)(=O)c4ccc(N[C@H](CCN5CCOCC5)CSc5ccccc5)c(S(=O)(=O)C(F)(F)F)c4)cc3)CC2)C1
GSK650394 (0.8 µM): O=C(O)c1ccc(-c2c[nH]c3ncc(-c4ccccc4)cc23)cc1C1CCCC1
T0901317 (7 µM): O=S(=O)(c1ccccc1)N(CC(F)(F)F)c1ccc(C(O)(C(F)(F)F)C(F)(F)F)cc1
PF-562271 (0.4 µM): CN(c1ncccc1CNc1nc(Nc2ccc3c(c2)CC(=O)N3)ncc1C(F)(F)F)S(C)(=O)=O

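Human melanoma cell lines in 1,536-well plates were treated with a pair of drugs for 72 h, then fixed, stained and imaged. The read-out is the fraction of cleaved-PARP-positive nuclei, in % of that fraction in the DMSO control; 200 means twice the control level of this apoptosis marker. Concentrations were fixed for each drug; these are the higher of two levels. These are primary screening values without error estimates. The marker varies much from line to line, for technical or biological reasons.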
Only some of the drugs and lines screened are listed, without regard to their results.

| Combination | UACC-62 |
|---|---|
| docetaxel + GW0742 | 429 |
| CHIR-265 + PF-562271 | 343 |
| CHIR-265 + GW0742 | 79.5 |
| GW0742 + T0901317 | 153 |
| PF-562271 + ABT-263 | 231 |
| CHIR-265 + TCS401 | 324 |
| docetaxel + TCS401 | 329 |
| docetaxel + everolimus | 359 |
| GW0742 + everolimus | 333 |
| ABT-263 + T0901317 | 252 |
| T0901317 + docetaxel | 355 |
| docetaxel + PF-562271 | 546 |
| CHIR-265 + docetaxel | 266 |
| TCS401 + GW0742 | 96.5 |
| docetaxel + GSK650394 | 220 |
| GSK650394 + CHIR-265 | 204 |
| everolimus + GSK650394 | 150 |
| GSK650394 + TCS401 | 110 |
| GW0742 + GSK650394 | 85.9 |
| GW0742 + PF-562271 | 164 |
| PF-562271 + TCS401 | 146 |
| T0901317 + CHIR-265 | 948 |
| TCS401 + T0901317 | 146 |
| ABT-263 + everolimus | 216 |
| GSK650394 + PF-562271 | 146 |
| GW0742 + ABT-263 | 204 |
| TCS401 + ABT-263 | 259 |
| CHIR-265 + ABT-263 | 256 |
| T0901317 + everolimus | 466 |
| everolimus + PF-562271 | 213 |
| GSK650394 + ABT-263 | 235 |
| docetaxel + ABT-263 | 256 |
| everolimus + CHIR-265 | 273 |

3 of the entries, repeated:

Combination	UACC-62
TCS401 + ABT-263	259
CHIR-265 + GW0742	79.5
T0901317 + CHIR-265	948

Values as published with doi:10.1371/journal.pone.0140310, rounded.